The supplement of paper PMC8728848
The list shows a part of the results.

Assays:
Assay in all cases: glycan array binding signal (z-score within array); higher = stronger binding
Details in all cases: glycan notation: IUPAC condensed, linker removed
[1] = biological target: Gal(b1-4)GlcNAc(b1-3)Gal(b1-4)GlcNAc(b1-2)Man(a1-3)[Gal(b1-4)GlcNAc(b1-3)Gal(b1-4)GlcNAc(b1-2)Man(a1-6)]Man(b1-4)GlcNAc(b1-4)[Fuc(a1-6)]GlcNAc
Procedure, shortened: (§1)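 The Consortium for Functional Glycomics database supplied 3228 glycan arrays, of which those lacking an available protein sequence were dropped. The binding signal, a within-array Z-score, was averaged across arrays of the same protein sequence and across linkers. Negative scores can be read as non-binding.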

[2] = biological target: Gal(b1-4)GlcNAc(b1-3)Gal(b1-4)GlcNAc(b1-2)[Gal(b1-4)GlcNAc(b1-3)Gal(b1-4)GlcNAc(b1-6)]Man(a1-6)[Gal(b1-4)GlcNAc(b1-3)Gal(b1-4)GlcNAc(b1-2)Man(a1-3)]Man(b1-4)GlcNAc(b1-4)GlcNAc
Procedure, shortened: as §1

[3] = biological target: Gal(b1-4)GlcNAc(b1-3)Gal(b1-4)GlcNAc(b1-2)[Gal(b1-4)GlcNAc(b1-3)Gal(b1-4)GlcNAc(b1-6)]Man(a1-6)[Gal(b1-4)GlcNAc(b1-3)Gal(b1-4)GlcNAc(b1-2)Man(a1-3)]Man(b1-4)GlcNAc(b1-4)[Fuc(a1-6)]GlcNAc
Procedure, shortened: as §1

[4] = biological target: Gal(b1-4)GlcNAc(b1-3)Gal(b1-4)GlcNAc(b1-3)Gal(b1-4)GlcNAc
Procedure, shortened: as §1

[5] = biological target: Gal(b1-4)GlcNAc(b1-3)Gal(b1-4)GlcNAc(b1-3)Gal(b1-4)GlcNAc(b1-2)Man(a1-3)[Gal(b1-4)GlcNAc(b1-3)Gal(b1-4)GlcNAc(b1-3)Gal(b1-4)GlcNAc(b1-2)Man(a1-6)]Man(b1-4)GlcNAc(b1-4)GlcNAc
Procedure, shortened: as §1

[6] = biological target: Gal(b1-4)GlcNAc(b1-3)Gal(b1-4)GlcNAc(b1-3)Gal(b1-4)GlcNAc(b1-2)Man(a1-3)[Gal(b1-4)GlcNAc(b1-3)Gal(b1-4)GlcNAc(b1-3)Gal(b1-4)GlcNAc(b1-2)Man(a1-6)]Man(b1-4)GlcNAc(b1-4)[Fuc(a1-6)]GlcNAc
Procedure, shortened: as §1

[7] = biological target: Gal(b1-4)GlcNAc(b1-3)Gal(b1-4)GlcNAc(b1-3)Gal(b1-4)GlcNAc(b1-2)[Gal(b1-4)GlcNAc(b1-3)Gal(b1-4)GlcNAc(b1-3)Gal(b1-4)GlcNAc(b1-6)]Man(a1-6)[Gal(b1-4)GlcNAc(b1-3)Gal(b1-4)GlcNAc(b1-3)Gal(b1-4)GlcNAc(b1-2)Man(a1-3)]Man(b1-4)GlcNAc(b1-4)[Fuc(a1-6)]GlcNAc
Procedure, shortened: as §1

[8] = biological target: Gal(b1-4)GlcNAc(b1-3)Gal(b1-4)GlcNAc(b1-3)Gal(b1-4)GlcNAc(b1-3)Gal(b1-4)GlcNAc(b1-2)Man(a1-3)[Gal(b1-4)GlcNAc(b1-3)Gal(b1-4)GlcNAc(b1-3)Gal(b1-4)GlcNAc(b1-3)Gal(b1-4)GlcNAc(b1-2)Man(a1-6)]Man(b1-4)GlcNAc(b1-4)GlcNAc
Procedure, shortened: as §1

[9] = biological target: Gal(b1-4)GlcNAc(b1-3)Gal(b1-4)GlcNAc(b1-3)Gal(b1-4)GlcNAc(b1-3)Gal(b1-4)GlcNAc(b1-2)Man(a1-3)[Gal(b1-4)GlcNAc(b1-3)Gal(b1-4)GlcNAc(b1-3)Gal(b1-4)GlcNAc(b1-3)Gal(b1-4)GlcNAc(b1-2)Man(a1-6)]Man(b1-4)GlcNAc(b1-4)[Fuc(a1-6)]GlcNAc
Procedure, shortened: as §1

[10] = biological target: Gal(b1-4)GlcNAc(b1-3)Gal(b1-4)GlcNAc(b1-3)Gal(b1-4)GlcNAc(b1-3)Gal(b1-4)GlcNAc(b1-2)[Gal(b1-4)GlcNAc(b1-3)Gal(b1-4)GlcNAc(b1-3)Gal(b1-4)GlcNAc(b1-3)Gal(b1-4)GlcNAc(b1-6)]Man(a1-6)[Gal(b1-4)GlcNAc(b1-3)Gal(b1-4)GlcNAc(b1-3)Gal(b1-4)GlcNAc(b1-3)Gal(b1-4)GlcNAc(b1-2)Man(a1-3)]Man(b1-4)GlcNAc(b1-4)[Fuc(a1-6)]GlcNAc
Procedure, shortened: as §1

[11] = biological target: Gal(b1-4)GlcNAc(b1-3)Gal(b1-4)GlcNAc(b1-3)Gal(b1-4)GlcNAc(b1-3)Gal(b1-4)GlcNAc(b1-3)Gal(b1-4)GlcNAc(b1-2)Man(a1-3)[Gal(b1-4)GlcNAc(b1-3)Gal(b1-4)GlcNAc(b1-3)Gal(b1-4)GlcNAc(b1-3)Gal(b1-4)GlcNAc(b1-3)Gal(b1-4)GlcNAc(b1-2)Man(a1-6)]Man(b1-4)GlcNAc(b1-4)GlcNAc
Procedure, shortened: as §1

[12] = biological target: Gal(b1-4)GlcNAc(b1-3)Gal(b1-4)GlcNAc(b1-3)Gal(b1-4)GlcNAc(b1-3)Gal(b1-4)GlcNAc(b1-3)Gal(b1-4)GlcNAc(b1-2)Man(a1-3)[Gal(b1-4)GlcNAc(b1-3)Gal(b1-4)GlcNAc(b1-3)Gal(b1-4)GlcNAc(b1-3)Gal(b1-4)GlcNAc(b1-3)Gal(b1-4)GlcNAc(b1-2)Man(a1-6)]Man(b1-4)GlcNAc(b1-4)[Fuc(a1-6)]GlcNAc
Procedure, shortened: as §1

[13] = biological target: Gal(b1-4)GlcNAc(b1-3)Gal(b1-4)GlcNAc(b1-3)Gal(b1-4)GlcNAc(b1-3)Gal(b1-4)GlcNAc(b1-3)Gal(b1-4)GlcNAc(b1-2)[Gal(b1-4)GlcNAc(b1-3)Gal(b1-4)GlcNAc(b1-3)Gal(b1-4)GlcNAc(b1-3)Gal(b1-4)GlcNAc(b1-3)Gal(b1-4)GlcNAc(b1-6)]Man(a1-6)[Gal(b1-4)GlcNAc(b1-3)Gal(b1-4)GlcNAc(b1-3)Gal(b1-4)GlcNAc(b1-3)Gal(b1-4)GlcNAc(b1-3)Gal(b1-4)GlcNAc(b1-2)Man(a1-3)]Man(b1-4)GlcNAc(b1-4)[Fuc(a1-6)]GlcNAc
Procedure, shortened: as §1

[14] = biological target: Gal(b1-4)GlcNAc(b1-3)Gal(b1-4)GlcNAc(b1-3)Gal(b1-4)GlcNAc(b1-3)Gal(b1-4)GlcNAc(b1-3)Gal(b1-4)GlcNAc(b1-3)Gal(b1-4)GlcNAc(b1-2)Man(a1-3)[Gal(b1-4)GlcNAc(b1-3)Gal(b1-4)GlcNAc(b1-3)Gal(b1-4)GlcNAc(b1-3)Gal(b1-4)GlcNAc(b1-3)Gal(b1-4)GlcNAc(b1-3)Gal(b1-4)GlcNAc(b1-2)Man(a1-6)]Man(b1-4)GlcNAc(b1-4)GlcNAc
Procedure, shortened: as §1

[15] = biological target: Gal(b1-4)GlcNAc(b1-3)Gal(b1-4)GlcNAc(b1-3)GalNAc
Procedure, shortened: as §1

[16] = biological target: Gal(b1-4)GlcNAc(b1-3)Gal(b1-4)GlcNAc(b1-3)[Gal(b1-4)GlcNAc(b1-3)Gal(b1-4)GlcNAc(b1-6)]GalNAc
Procedure, shortened: as §1

[17] = biological target: Gal(b1-4)GlcNAc(b1-3)Gal(b1-4)GlcNAc(b1-6)[Gal(b1-3)]GalNAc
Procedure, shortened: as §1

[18] = biological target: Gal(b1-4)GlcNAc(b1-3)Gal(b1-4)[Fuc(a1-3)]GlcNAc(b1-3)Gal(b1-4)[Fuc(a1-3)]GlcNAc
Procedure, shortened: as §1

[19] = biological target: Gal(b1-4)GlcNAc(b1-3)GalNAc
Procedure, shortened: as §1

[20] = biological target: Gal(b1-4)GlcNAc(b1-3)[Fuc(a1-3)GlcNAc(b1-6)]Gal(b1-4)Glc
Procedure, shortened: as §1

[21] = biological target: Gal(b1-4)GlcNAc(b1-3)[Gal(b1-4)GlcNAc(b1-6)]Gal(b1-4)GlcNAc
Procedure, shortened: as §1

[22] = biological target: Gal(b1-4)GlcNAc(b1-3)[GlcNAc(b1-6)]Gal(b1-4)GlcNAc
Procedure, shortened: as §1

[23] = biological target: Gal(b1-4)GlcNAc(b1-6)Gal(b1-4)GlcNAc
Procedure, shortened: as §1

[24] = biological target: Gal(b1-4)GlcNAc(b1-6)GalNAc
Procedure, shortened: as §1

[25] = biological target: Gal(b1-4)GlcNAc(b1-6)[Gal(b1-3)]GalNAc
Procedure, shortened: as §1

[26] = biological target: Gal(b1-4)GlcNAc(b1-6)[Gal(b1-4)GlcNAc(b1-3)]GalNAc
Procedure, shortened: as §1

Gal(b1-4)GlcNAc6P = biological target: Gal(b1-4)GlcNAc6P
Procedure, shortened: as §1

Gal(b1-6)Gal = biological target: Gal(b1-6)Gal
Procedure, shortened: as §1

Gal3S(b1-3)GalNAc = biological target: Gal3S(b1-3)GalNAc
Procedure, shortened: as §1

Gal3S(b1-3)GlcNAc = biological target: Gal3S(b1-3)GlcNAc
Procedure, shortened: as §1

B1: BT4246 (Bacteroides thetaiotaomicron), Q89ZX5 (protein)
chain: MGSSHHHHHHENLYFQGHMASDYLDVVPPEQPNIDDAMSSPTRALGFLYSCYGGVSTDLPSAYLGEINSTTDEYVLPYSWNTDGYWGAYAFNTASSTNQDWLWGTTYQYIGQCYLFLQKLENAGSDIASDAEKEQWRAECQFLVAYYHFATLRRYGPIPITDSYIPMDTPTSEYNGRFHFDYCVDWIANQLDEAAKVLPANRTVTNEWGRATSTIAKAVKARLLLYAASPLWNGSFPYPNWQNENFETPGYGKALVSNTYDKSKWERALAACQEALTLATTSGDRELYDDDEYYSRQSLNLPFVPGVADVEDNKEFLKNVMKMRYAVSTRESEGNKEIIWGLSNQFDFYSRYPLRILKKSDGTWHAGYSGVSPTLYTFEHFYTANGKLPEKDLDFTPSSEWFESAGISSREDIIKLNVGREPRFYAWMAFDGGDYGTKFAAGSPLKLEMRNSEMHGYNPSLFNRDHSVTGFLTQKFVDPVTEFYTAGGSTSGTSAPTILFRLAELYLNVAECHAALGNTQEAIDALNPVRERAGIPKLTLADITNNMTIKDWVHNERFVELWNEGHRFFDVRRWAEGAKYFGANKREGLNAEVQSPTFEEFNKRTTVDAPYVWENRMYLNPVFYNEVYKNPQMVQAPGY
Question: How did the “glycan array binding signal (z-score)” value [1] turn out when B1 was run?
Answer: 0.242

Question: What about the “glycan array binding signal (z-score)” value [2] of the same binder?
Answer: 2.71

Question: And the “glycan array binding signal (z-score)” value [3]?
Answer: 0.32

Question: What about the “glycan array binding signal (z-score)” value [4] of the same binder?
Answer: -0.807

Question: And the “glycan array binding signal (z-score)” value [5]?
Answer: 1.38

Question: And the “glycan array binding signal (z-score)” value [6]?
Answer: 0.125

Question: What about the “glycan array binding signal (z-score)” value [7] of the same binder?
Answer: -0.171

Question: What about the “glycan array binding signal (z-score)” value [8] of the same binder?
Answer: -0.533

Question: What about the “glycan array binding signal (z-score)” value [9] of the same binder?
Answer: 0.893

Question: And the “glycan array binding signal (z-score)” value [10]?
Answer: -0.329

Question: And the “glycan array binding signal (z-score)” value [11]?
Answer: 1.88

Question: And the “glycan array binding signal (z-score)” value [12]?
Answer: 0.175

Question: And the “glycan array binding signal (z-score)” value [13]?
Answer: 1.25

Question: And the “glycan array binding signal (z-score)” value [14]?
Answer: -0.605

Question: And the “glycan array binding signal (z-score)” value [15]?
Answer: -0.435

Question: What about the “glycan array binding signal (z-score)” value [16] of the same binder?
Answer: 1.98

Question: What about the “glycan array binding signal (z-score)” value [17] of the same binder?
Answer: -0.514

Question: And the “glycan array binding signal (z-score)” value [18]?
Answer: -1.29

Question: What about the “glycan array binding signal (z-score)” value [19] of the same binder?
Answer: -0.18

Question: What about the “glycan array binding signal (z-score)” value [20] of the same binder?
Answer: -0.493

Question: And the “glycan array binding signal (z-score)” value [21]?
Answer: 2.23

Question: What about the “glycan array binding signal (z-score)” value [22] of the same binder?
Answer: -0.588

Question: What about the “glycan array binding signal (z-score)” value [23] of the same binder?
Answer: -1.45

Question: And the “glycan array binding signal (z-score)” value [24]?
Answer: 0.315

Question: What about the “glycan array binding signal (z-score)” value [25] of the same binder?
Answer: 0.573

Question: What about the “glycan array binding signal (z-score)” value [26] of the same binder?
Answer: -0.196

Question: What about the “glycan array binding signal (z-score)” value (Gal(b1-4)GlcNAc6P) of the same binder?
Answer: -0.324

Question: And the “glycan array binding signal (z-score)” value (Gal(b1-6)Gal)?
Answer: 0.501

Question: And the “glycan array binding signal (z-score)” value (Gal3S(b1-3)GalNAc)?
Answer: -1.44

Question: What about the “glycan array binding signal (z-score)” value (Gal3S(b1-3)GlcNAc) of the same binder?
Answer: -0.047
